# Data published in PubChem BioAssay AID504408 (Broad Institute, 2011).
# Hit rate of the full screen: of about 300,000 compounds, about 5,200 (1.7%) were called active. Inconclusive results, whose numbers are uncertain, are shown with a selection of clear calls.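 How the source made its calls: active means mean replicate activation of at least 50% with a set share of replicates each reaching 50%; inconclusive means only one of those two conditions met; inactive means mean below 50% and too few replicates reaching it.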
# Assay: HSF-1 activators, primary screen, NIH3T3-HGL cells, MG132 stress, luminescence, single point (AID 504408);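 further: 0% = median of the neutral control wells and 100% = twice that signal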
# Settings: NIH3T3-HGL HSF-1 luciferase reporter, MG132, 8 h; at 9 µM; active compounds read high; 100% = twice DMSO control signal
row,Structure (SMILES),activation
1,COc1ccc(S(=O)(=O)N[C@@H](Cc2ccccc2)C(=O)N2CC[C@@]3(O)CCCC[C@H]3C2)cc1,inconclusive: 57.3%
2,Cc1ccc(C(=O)N/N=C/c2ccc3c(c2)OCO3)o1,inactive: 11.6%
3,S=C(NCCc1ccc(Cl)cc1)NC1CCCCC1,active: 57.8%
4,CNC(=S)NCCC(c1ccccc1)c1ccccc1,inconclusive: 50.6%
5,COc1cccc(CNC(=O)C(Cc2ccccc2)n2cccc2)c1 (stereo not drawn),inactive: 3.42%
6,CCOc1ccc2nc(NC(=O)c3cnccn3)sc2c1,active: 98.5%
7,Cc1cccc(NC(=O)c2ccc(N3CCCCC3)c([N+](=O)[O-])c2)n1,active: 62.2%
8,Cc1c(NC(=O)COC(=O)c2cc(-c3ccc(-c4ccccc4)cc3)nc3ccccc23)c(=O)n(-c2ccccc2)n1C,inconclusive: 53.2%
9,Cc1cccc(/C=C/c2onc(C)c2[N+](=O)[O-])n1,inconclusive: 54%
10,O=C(Nc1cccc2cccnc12)c1ccccc1Cl,active: 90.8%
11,COc1ccccc1OCC(=O)Nc1nc(C)c(C)s1,inconclusive: 50.3%
12,Cc1ccc(NC(=O)C2CCCN(c3ncccn3)C2)cc1F (stereo not drawn),active: 59.7%
13,COC(=O)C1=C(C)NC2=C(C(=O)CC(C)(C)C2)C1c1cn(Cc2ccc(Br)cc2)nc1-c1ccccc1 (stereo not drawn),active: 74.1%
14,O=C(C1CCCCC1)N1CCN(S(=O)(=O)c2ccc(Cl)cc2)CC1,inactive: 8.74%
15,COc1ccc(C(c2c(O)ccc3ccccc23)N2CCOCC2)c(OC)c1 (stereo not drawn),active: 106%
16,COc1ccc(NC(=O)CN(C)S(=O)(=O)c2ccc(Br)s2)cc1OC,active: 55.1%
17,CSc1ccccc1OCc1cc(C(=O)N[C@H]2CCCCNC2=O)no1,inconclusive: 51.6%
18,CCOC(=O)c1c(NC(=O)CSc2nnc(N)s2)sc(C)c1-c1ccc(C)cc1,inconclusive: 51.6%
19,Cc1cc(-c2ccccc2)[nH]c(=O)c1C#N,inconclusive: 56.3%
20,CC(C)C(=O)N1CCN(c2ccc(NC(=O)c3ccc([N+](=O)[O-])o3)cc2)CC1,inconclusive: 50.5%
21,CCOc1ccccc1N(C(=O)c1snc(C(N)=O)c1N)C(CC)C(=O)NC1CCCC1 (stereo not drawn),inconclusive: 50.9%
22,COC(=O)CC1C(=O)NCCN1C(=S)Nc1cccc(C)c1 (stereo not drawn),inactive: 0.185%
23,CCCCc1ccc(NC(=O)CC(C)(C)C)cc1,inconclusive: 53%
24,CCc1ccc(C(C)NC(=O)Cn2cnc3c(=O)n(C)c(=O)n(C)c32)cc1 (stereo not drawn),inconclusive: 50.8%

row,Structure (SMILES),activation
1,CCOC(=O)C(C)CC(C)C(=O)N1CCOCCOCCN(C(=O)C(C)CC(C)C(=O)OCC)CCOCC1 (stereo not drawn),inactive: 5.49%
2,COc1nc(-c2ccccc2)nnc1-c1ccccc1,inconclusive: 50.5%
3,CCOC(=O)C(=Cc1cc(=O)c(OC)co1)C(=O)OCC,active: 94.4%
4,N/C(=N\OC(=O)CSc1ccccc1)c1ccccn1,inconclusive: 52.6%
5,CC(C)CNC(=S)NC(=O)c1ccc(Cl)cc1,inconclusive: 50.4%
6,Fc1ccc(-c2nc(-c3cnccn3)no2)c(Cl)c1,inconclusive: 53.1%
7,O=C(COC(=O)c1ccccc1C(=O)c1ccccc1)NCCc1ccc(Cl)cc1Cl,inconclusive: 51.7%
8,COc1ccc(C2CC(=O)c3cnc(N4CCc5ccccc54)nc3C2)cc1OC (stereo not drawn),inconclusive: 55.9%
9,Cc1ccc(C(=O)/C=C/c2ccc3c(c2)OCO3)o1,active: 59.5%
10,O=C(NCC1CCCO1)C(c1ccc(F)cc1)N(Cc1ccc(F)cc1)C(=O)Cn1nnc(-c2cccs2)n1 (stereo not drawn),inconclusive: 55.9%
11,O=C1/C(=C\c2ccc(C(F)(F)F)cc2)CSc2sccc21,inactive: 23.7%
12,c1ccc(COc2ccccc2CNC2CCCC2)cc1,active: 58.2%
13,Cc1ccc(NC(=O)c2ccc3c(c2)OCCO3)cc1S(=O)(=O)Nc1cccc(Cl)c1,inconclusive: 51.5%
14,Cc1ccc(-n2nc3c(c2NC(=O)c2ccc4c(c2)OCO4)CSC3)c(C)c1,inconclusive: 53.5%
15,CCn1nnnc1SCC(=O)Nc1nc2ccccc2s1,inactive: 21.3%
16,O=C(NC1CCCC1)c1cc(-c2ccccc2O)on1,inconclusive: 51.3%
17,CCOC(=O)C1=C(C)Nc2nc3ccccc3n2C1c1ccncc1 (stereo not drawn),active: 79.6%
18,CCOc1ccccc1-c1nc(-c2ccc(NC(=O)c3ccc(Br)o3)cc2)no1,inconclusive: 53%
19,CCN(CC)S(=O)(=O)c1cccc(C(=O)OCC(=O)N2CC(=O)Nc3ccccc32)c1,inconclusive: 53.7%
20,COc1ccc2c(c1)C1=NN(/C(C)=C/C(C)=O)C(c3cccc(F)c3)C1CC2 (stereo not drawn),inconclusive: 58.4%
21,Cc1ccc(O)c(-c2cc(C(=O)NCc3ccc4c(c3)OCO4)[nH]n2)c1,inactive: 48.6%
22,[O-]/[N+](=C\c1ccc(OC(F)F)cc1)c1ccccc1,inconclusive: 52.2%
23,COc1cc(Nc2c3c(nc4ccccc24)CCCC3)cc(OC)c1OC,inactive: 35%
24,CCN1CCSc2ccc(C(=O)NCc3ccccc3Br)cc21,inconclusive: 59.7%

row,Structure (SMILES),activation
1,COc1cc2c(cc1OC)C(CCc1ccccc1)=NCC2,inconclusive: 52.3%
2,NS(=O)(=O)c1ccc2nc(NC(=O)C3=COCCO3)sc2c1,inconclusive: 50.1%
3,C/C(CC(=O)Nc1ccc(Cl)c(Cl)c1)=N\NC(=O)C(=O)N1CCCCC1,active: 54.3%
4,O=C(Nc1ncccc1Cl)c1cc2ccccc2o1,inconclusive: 50.8%
5,CN(C)CCN1C(=O)C2C(C(=O)Nc3cc(Cl)cc(Cl)c3)C3C=CC2(O3)C1C(=O)NC1CCCCC1 (stereo not drawn),active: 85.4%
6,O=C(NCc1ccco1)C1CC(O)CN1C(=O)Nc1ccccc1 (stereo not drawn),inconclusive: 51.3%
7,Cc1ccc(N=C2NC(=O)CS2)cc1,inconclusive: 50.4%
8,CC1CCCN(C(=O)COC(=O)Cc2c(F)cccc2Cl)C1 (stereo not drawn),inactive: 19.5%
9,COc1ccc(OCCSc2ncccn2)cc1,inconclusive: 50.2%
10,C(=N\Nc1ccccn1)/c1c[nH]c2ccccc12,active: 251%
11,O=C(Nc1nnc2n1CCS2)c1ccco1,inactive: -0.733%
12,Cc1c(C(=O)N(C)C)sc2nc(-c3ccccn3)[nH]c(=O)c12,inactive: -2%
13,O=C(Cc1nc2ccccc2[nH]1)c1ccc([N+](=O)[O-])cc1,inconclusive: 53.2%
14,O=C(COc1ccc2ccccc2c1)Nc1nccs1,inconclusive: 53.6%
15,CCCCCCC(=O)c1c(C)[nH]c(C(=O)OCC)c1C,active: 53.2%
16,COc1cc(NC(=S)NCCCN2CCOCC2)cc(OC)c1,inconclusive: 50.8%
17,Nn1c(SCCOc2ccccc2)nnc1-c1cccnc1,inactive: 17.5%
18,C/C(CC(=O)Nc1ccc(C)c(Cl)c1)=N\NC(=O)Cc1ccccc1,inconclusive: 50.6%
19,Cc1cc2c3ccccc3ncn2n1,inactive: 6.98%
20,CC(Cc1ccc(O)c(O)c1)C(C)Cc1ccc(O)c(O)c1 (stereo not drawn),inconclusive: 52.2%
21,COc1ccc(N2CCN(C(=O)/C(C#N)=C/c3ccccc3)CC2)cc1,inactive: -4.53%
22,O=S(=O)(Nc1nc2ccccc2nc1N1CCN(c2ccccc2)CC1)c1ccc(F)cc1,inconclusive: 52.4%
23,C=CCc1cccc(CNc2nc3ccccc3n2CCN2CCOCC2)c1O,active: 118%
24,CCn1nc(C)c(CNC(=O)CC2C(=O)NCCN2CC(C)(C)C)c1C (stereo not drawn),inactive: -5.51%

# Entries from the list above with an aryl methoxy group, in the order listed:
row,Structure (SMILES),activation
1,COc1ccc(S(=O)(=O)N[C@@H](Cc2ccccc2)C(=O)N2CC[C@@]3(O)CCCC[C@H]3C2)cc1,inconclusive: 57.3%
5,COc1cccc(CNC(=O)C(Cc2ccccc2)n2cccc2)c1 (stereo not drawn),inactive: 3.42%
11,COc1ccccc1OCC(=O)Nc1nc(C)c(C)s1,inconclusive: 50.3%
15,COc1ccc(C(c2c(O)ccc3ccccc23)N2CCOCC2)c(OC)c1 (stereo not drawn),active: 106%
16,COc1ccc(NC(=O)CN(C)S(=O)(=O)c2ccc(Br)s2)cc1OC,active: 55.1%
2,COc1nc(-c2ccccc2)nnc1-c1ccccc1,inconclusive: 50.5%
3,CCOC(=O)C(=Cc1cc(=O)c(OC)co1)C(=O)OCC,active: 94.4%
8,COc1ccc(C2CC(=O)c3cnc(N4CCc5ccccc54)nc3C2)cc1OC (stereo not drawn),inconclusive: 55.9%
20,COc1ccc2c(c1)C1=NN(/C(C)=C/C(C)=O)C(c3cccc(F)c3)C1CC2 (stereo not drawn),inconclusive: 58.4%
23,COc1cc(Nc2c3c(nc4ccccc24)CCCC3)cc(OC)c1OC,inactive: 35%
1,COc1cc2c(cc1OC)C(CCc1ccccc1)=NCC2,inconclusive: 52.3%
9,COc1ccc(OCCSc2ncccn2)cc1,inconclusive: 50.2%
16,COc1cc(NC(=S)NCCCN2CCOCC2)cc(OC)c1,inconclusive: 50.8%
21,COc1ccc(N2CCN(C(=O)/C(C#N)=C/c3ccccc3)CC2)cc1,inactive: -4.53%

# Following part:

row,Structure (SMILES),activation
1,C/C(CCc1ccco1)=N\NC(=O)CNc1cccc2ccccc12,inconclusive: 50.4%
2,O=C(Nc1ccc(CN2CCCCC2)cc1)Nc1ccccc1Cl,inactive: 28.8%
3,COC(=O)CC1C(=O)NCCN1C(=O)c1ccc(S(=O)(=O)N2CCOCC2)cc1 (stereo not drawn),inconclusive: 55.3%
4,Cc1ccc(/C=C/C(=O)NCc2cccs2)c(C)c1,inconclusive: 54.2%
5,O=C(CSc1nnc(-c2ccncc2)n1-c1ccc(F)cc1)NC(=O)NCc1ccco1,inactive: -8.12%
6,COc1ccc(CNC(=O)c2sc(=S)n(-c3ccccc3)c2N)cc1,inactive: -72.6%
7,Cc1ccnc(NC(=O)c2sc3cc(Cl)ccc3c2Cl)c1,active: 54.3%
8,CC(=O)c1ccc(-c2ccc(C(=O)N3CCCc4ccccc43)o2)cc1,inconclusive: 54.4%
9,N#CC1=C(N)N2C(=C(C#N)C13CCCCC3)SC1CCCCC12O (stereo not drawn),inconclusive: 54.7%
10,Cc1ccc(CNC(=O)c2ccccc2N)cc1,inconclusive: 50.7%
11,COc1cc(C2C(C(=O)c3cc4ccccc4o3)=C(O)C(=O)N2c2cc(C)on2)cc(OC)c1OC (stereo not drawn),active: 57.1%
12,O=C(CSc1nnc(-c2ccco2)n1Cc1ccco1)Nc1ccccc1,inactive: -0.436%
13,CCOC(=O)C(Cc1c[nH]c2ccccc12)NC(=O)c1ccccc1Br (stereo not drawn),inactive: 4.45%
14,c1cnc(N2CCN(c3ccc4ccccc4n3)CC2)nc1,active: 53.3%
15,CCOC(=O)Cn1c(=O)oc2cc(S(=O)(=O)N3CCN(C(=O)c4ccco4)CC3)ccc21,active: 71.3%
16,CC(=O)Nc1ccc(S(=O)(=O)N2CCN(C(=O)c3ncoc3-c3cccc(F)c3)CC2)cc1,inconclusive: 54.8%
17,Cc1ccc(C2=NN(C(=S)Nc3ccccc3)C(c3ccco3)C2)cc1 (stereo not drawn),active: 60.6%
18,CSc1cccc(NC(=O)CSc2ccc(Cl)cc2)c1,inactive: 11.2%
19,CCn1c(SCc2nc3ccccc3c(=O)[nH]2)nc2ccccc21,inconclusive: 50%
20,O=C(/C=C/c1ccc(Cl)cc1Cl)NC(=S)Nc1ccc(CN2CCOCC2)cc1,inactive: 27.6%
21,O=C(CS(=O)CC(=O)NC12CC3CC(CC(C3)C1)C2)Nc1ccc(F)cc1 (stereo not drawn),inactive: 8.19%

# 2 neighbouring compounds from above:
row,Structure (SMILES),activation
2,O=C(Nc1ccc(CN2CCCCC2)cc1)Nc1ccccc1Cl,inactive: 28.8%
3,COC(=O)CC1C(=O)NCCN1C(=O)c1ccc(S(=O)(=O)N2CCOCC2)cc1 (stereo not drawn),inconclusive: 55.3%
